For at least one compound, name, drawing or mass did not settle the structure.
Test system: db/db mice
Assay: Antidiabetic effects in db/db mice, second experiment (8 weeks of treatment)
Type: in vivo
Conditions: male db/db mice, daily oral treatment, after 8 weeks; compound 150 mg/kg, rosiglitazone 20 mg/kg; compared to vehicle-treated controls

CN(CCOc1ccc(CC2SC(=O)NC2=O)cc1)c1ccccn1 (centres unmarked) [rosiglitazone]
blood glucose: significantly lower | triglycerides: significantly lower

From patent publication US8044243B2, “Compounds for the treatment of metabolic disorders” (Wellstat Therapeutics Corporation, priority 2006, dated 2011)
